The test concerns Candida albicans. Nature of the test: Antimicrobial activity against Candida albicans high-persister mutants after 48 hrs by broth microdilution method. It is filed as functional. (Broth dilution looks for growth in wells or tubes with falling amounts of substance.)

Structures are written as SMILES. ≈ marks a conversion by molar mass, not a printed value.

The MIC is the lowest concentration that inhibits growth of the organism. A higher MIC goes with a need for much substance.

`C[C@@H]1[C@H](O)[C@@H](C)/C=C/C=C/C=C/C=C/C=C/C=C/C=C/[C@H](O[C@@H]2O[C@H](C)[C@@H](O)[C@H](N)[C@@H]2O)C[C@@H]2O[C@](O)(C[C@@H](O)C[C@@H](O)[C@H](O)CC[C@@H](O)C[C@@H](O)CC(=O)O[C@H]1C)C[C@H](O)[C@H]2C(=O)O` [AMPHOTERICIN B] gave an MIC of 0.2 µg/mL (≈ 0.216 µM).

The record behind these values is ChEMBL document CHEMBL1212748, “Patients with long-term oral carriage harbor high-persister mutants of Candida albicans” (2010).
